{"sequences": {"note": "Chains of the proteins cited; added tags and fusions are not shown.", "UniProt Q00610": "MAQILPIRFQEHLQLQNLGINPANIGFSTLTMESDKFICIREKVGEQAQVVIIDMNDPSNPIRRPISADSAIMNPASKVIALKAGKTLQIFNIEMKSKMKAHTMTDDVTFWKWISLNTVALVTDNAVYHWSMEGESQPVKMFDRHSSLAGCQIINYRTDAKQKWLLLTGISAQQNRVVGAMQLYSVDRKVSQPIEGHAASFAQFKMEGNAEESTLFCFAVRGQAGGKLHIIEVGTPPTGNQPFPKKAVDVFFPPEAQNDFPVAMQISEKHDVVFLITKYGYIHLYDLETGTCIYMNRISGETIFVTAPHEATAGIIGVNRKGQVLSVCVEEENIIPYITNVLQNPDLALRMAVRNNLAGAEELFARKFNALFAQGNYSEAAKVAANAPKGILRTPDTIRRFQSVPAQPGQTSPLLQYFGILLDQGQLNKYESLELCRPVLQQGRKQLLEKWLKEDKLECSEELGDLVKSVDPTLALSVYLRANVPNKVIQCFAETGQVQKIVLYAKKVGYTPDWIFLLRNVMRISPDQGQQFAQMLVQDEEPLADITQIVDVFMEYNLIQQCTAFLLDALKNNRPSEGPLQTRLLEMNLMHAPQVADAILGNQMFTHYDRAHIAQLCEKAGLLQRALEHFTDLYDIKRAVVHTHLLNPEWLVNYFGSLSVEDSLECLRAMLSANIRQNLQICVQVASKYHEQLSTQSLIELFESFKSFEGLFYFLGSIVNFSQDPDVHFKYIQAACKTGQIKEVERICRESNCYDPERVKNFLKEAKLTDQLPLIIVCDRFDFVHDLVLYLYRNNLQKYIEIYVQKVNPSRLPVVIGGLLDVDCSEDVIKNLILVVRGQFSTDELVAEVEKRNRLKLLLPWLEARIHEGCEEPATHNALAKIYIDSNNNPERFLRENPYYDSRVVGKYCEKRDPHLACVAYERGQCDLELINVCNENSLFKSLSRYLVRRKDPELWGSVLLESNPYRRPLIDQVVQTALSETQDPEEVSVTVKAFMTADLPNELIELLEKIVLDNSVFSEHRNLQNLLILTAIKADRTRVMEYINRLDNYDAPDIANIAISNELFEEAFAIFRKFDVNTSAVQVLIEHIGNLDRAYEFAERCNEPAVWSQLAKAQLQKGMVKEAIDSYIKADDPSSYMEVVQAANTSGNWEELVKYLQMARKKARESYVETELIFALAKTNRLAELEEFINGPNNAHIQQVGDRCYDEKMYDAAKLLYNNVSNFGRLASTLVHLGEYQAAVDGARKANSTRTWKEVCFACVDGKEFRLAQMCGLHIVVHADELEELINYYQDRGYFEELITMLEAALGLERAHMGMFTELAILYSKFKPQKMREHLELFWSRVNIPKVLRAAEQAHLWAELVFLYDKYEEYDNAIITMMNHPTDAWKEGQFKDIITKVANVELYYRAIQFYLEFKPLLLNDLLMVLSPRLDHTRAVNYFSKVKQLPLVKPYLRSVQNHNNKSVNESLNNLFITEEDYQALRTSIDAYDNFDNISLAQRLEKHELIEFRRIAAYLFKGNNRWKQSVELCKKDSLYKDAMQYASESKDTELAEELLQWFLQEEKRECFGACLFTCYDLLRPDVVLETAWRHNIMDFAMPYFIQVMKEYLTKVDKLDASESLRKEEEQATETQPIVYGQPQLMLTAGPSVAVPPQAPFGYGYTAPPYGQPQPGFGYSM"}, "source": "paper PMC5836524", "key": {"[1]": {"target": "T1, EGFP-Eps15R aa 1-861 (ΔUIM) (mouse) (UniProt Q60902)", "T1 sequence": "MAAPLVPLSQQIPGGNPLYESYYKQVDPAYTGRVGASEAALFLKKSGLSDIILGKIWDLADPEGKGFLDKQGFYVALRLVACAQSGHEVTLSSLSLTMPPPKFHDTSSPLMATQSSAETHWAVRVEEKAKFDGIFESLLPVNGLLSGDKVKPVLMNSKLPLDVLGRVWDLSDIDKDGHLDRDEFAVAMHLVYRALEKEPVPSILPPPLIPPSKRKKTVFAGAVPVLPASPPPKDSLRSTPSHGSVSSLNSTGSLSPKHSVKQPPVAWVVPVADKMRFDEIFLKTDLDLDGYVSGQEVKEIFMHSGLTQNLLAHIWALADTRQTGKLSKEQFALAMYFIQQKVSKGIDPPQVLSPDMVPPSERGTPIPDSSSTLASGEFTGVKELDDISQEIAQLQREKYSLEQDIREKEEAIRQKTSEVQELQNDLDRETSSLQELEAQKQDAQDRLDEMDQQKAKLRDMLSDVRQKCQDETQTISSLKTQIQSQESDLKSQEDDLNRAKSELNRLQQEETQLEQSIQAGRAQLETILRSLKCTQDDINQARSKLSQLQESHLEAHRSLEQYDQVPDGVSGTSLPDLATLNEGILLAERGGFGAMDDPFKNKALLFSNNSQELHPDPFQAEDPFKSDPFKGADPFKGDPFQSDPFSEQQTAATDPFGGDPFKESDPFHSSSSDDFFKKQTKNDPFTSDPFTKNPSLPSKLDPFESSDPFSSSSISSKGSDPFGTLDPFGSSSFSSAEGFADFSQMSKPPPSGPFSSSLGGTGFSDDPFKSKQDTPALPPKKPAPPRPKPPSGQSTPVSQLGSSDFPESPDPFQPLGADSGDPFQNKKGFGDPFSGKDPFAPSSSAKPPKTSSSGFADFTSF", "assay": "co-IP; EGFP-tagged Eps15R, its truncations or mutant, EGFP-Eps15 or EGFP immunoprecipitated from HeLa cell extract (20 mM HEPES pH 7.4, 100 mM NaCl, 0.5 mM TCEP, 0.1% NP-40; 4°C); immunoblot for clathrin, AP2 β-adaptin and EGFP"}, "[2]": {"target": "T2, EGFP-Eps15R aa 1-596 (Δ motif domain) (mouse) (UniProt Q60902)", "T2 sequence": "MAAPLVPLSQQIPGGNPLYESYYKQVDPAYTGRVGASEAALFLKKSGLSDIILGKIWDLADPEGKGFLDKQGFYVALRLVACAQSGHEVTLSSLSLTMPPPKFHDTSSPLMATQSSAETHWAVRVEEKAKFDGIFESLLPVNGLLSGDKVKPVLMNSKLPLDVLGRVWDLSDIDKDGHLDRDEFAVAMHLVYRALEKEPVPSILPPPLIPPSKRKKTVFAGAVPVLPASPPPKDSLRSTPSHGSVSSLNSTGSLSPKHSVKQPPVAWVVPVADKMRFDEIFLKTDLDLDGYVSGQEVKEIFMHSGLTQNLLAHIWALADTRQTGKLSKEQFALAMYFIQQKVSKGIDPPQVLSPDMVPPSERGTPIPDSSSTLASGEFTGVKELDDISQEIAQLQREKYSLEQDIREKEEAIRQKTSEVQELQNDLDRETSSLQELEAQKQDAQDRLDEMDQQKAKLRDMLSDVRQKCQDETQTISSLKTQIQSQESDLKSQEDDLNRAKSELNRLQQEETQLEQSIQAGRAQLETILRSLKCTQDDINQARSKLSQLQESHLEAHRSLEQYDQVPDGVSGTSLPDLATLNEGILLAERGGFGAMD", "assay": "co-IP; EGFP-tagged Eps15R, its truncations or mutant, EGFP-Eps15 or EGFP immunoprecipitated from HeLa cell extract (20 mM HEPES pH 7.4, 100 mM NaCl, 0.5 mM TCEP, 0.1% NP-40; 4°C); immunoblot for clathrin, AP2 β-adaptin and EGFP"}, "[3]": {"target": "T3, EGFP-Eps15R aa 1-747 (Δ proline-rich region) (mouse) (UniProt Q60902)", "T3 sequence": "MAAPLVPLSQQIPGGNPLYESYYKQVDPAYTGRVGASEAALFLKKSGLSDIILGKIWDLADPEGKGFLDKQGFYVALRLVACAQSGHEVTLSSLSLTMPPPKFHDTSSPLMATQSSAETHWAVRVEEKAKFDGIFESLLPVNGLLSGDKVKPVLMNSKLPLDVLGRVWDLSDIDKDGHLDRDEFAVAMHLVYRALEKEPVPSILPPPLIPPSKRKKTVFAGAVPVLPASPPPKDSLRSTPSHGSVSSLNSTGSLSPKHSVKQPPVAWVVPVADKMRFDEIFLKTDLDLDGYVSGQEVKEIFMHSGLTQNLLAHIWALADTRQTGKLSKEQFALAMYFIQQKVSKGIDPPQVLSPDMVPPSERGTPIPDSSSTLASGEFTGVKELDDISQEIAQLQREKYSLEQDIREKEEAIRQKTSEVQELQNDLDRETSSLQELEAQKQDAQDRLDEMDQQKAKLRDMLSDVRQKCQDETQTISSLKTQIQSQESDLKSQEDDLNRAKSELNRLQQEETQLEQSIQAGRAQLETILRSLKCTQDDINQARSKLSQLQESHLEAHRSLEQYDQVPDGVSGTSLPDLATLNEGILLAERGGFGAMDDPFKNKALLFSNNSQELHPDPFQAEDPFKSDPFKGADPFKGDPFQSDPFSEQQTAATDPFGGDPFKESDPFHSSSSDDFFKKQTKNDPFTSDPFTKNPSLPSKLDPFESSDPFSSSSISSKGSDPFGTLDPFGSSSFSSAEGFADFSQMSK", "assay": "co-IP; EGFP-tagged Eps15R, its truncations or mutant, EGFP-Eps15 or EGFP immunoprecipitated from HeLa cell extract (20 mM HEPES pH 7.4, 100 mM NaCl, 0.5 mM TCEP, 0.1% NP-40; 4°C); immunoblot for clathrin, AP2 β-adaptin and EGFP"}, "[4]": {"target": "T4, GST-Eps15R aa 699-729 F722A (mouse) (UniProt Q60902)", "T4 sequence": "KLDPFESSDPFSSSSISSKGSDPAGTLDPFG", "assay": "pull-down; GST-tagged Eps15R or Eps15 motif domain constructs on beads incubated with detergent extracts from HeLa cells (100-200 μg lysate, 30-60 min, 4°C); immunoblot for clathrin and AP2 β-adaptin; only the target purified"}, "[5]": {"target": "T5, GST-Eps15R aa 701-747 D707A (mouse) (UniProt Q60902)", "T5 sequence": "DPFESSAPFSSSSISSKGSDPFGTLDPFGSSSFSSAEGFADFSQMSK", "assay": "pull-down; GST-tagged Eps15R or Eps15 motif domain constructs on beads incubated with detergent extracts from HeLa cells (100-200 μg lysate, 30-60 min, 4°C); immunoblot for clathrin and AP2 β-adaptin; only the target purified"}}, "note": "No constants are given. Whether binding was seen depends on the method and setting. Binding seen in cells or lysates may run through a third protein. Some entries that bind do so weakly or less than the wild type. Tags and fused reporters may be left off the sequences shown."}
{"substance": "clathrin (endogenous, detected by blot for clathrin heavy chain) (from UniProt Q00610 1-1675)", "values": [{"measurement": "binding", "setting": "[1]", "result": "binds"}, {"measurement": "binding", "setting": "[2]", "result": "no binding"}, {"measurement": "binding", "setting": "[3]", "result": "binds"}, {"measurement": "binding", "setting": "[4]", "result": "binds"}, {"measurement": "binding", "setting": "[5]", "result": "binds"}]}
